According to article doi:10.1101/2020.04.03.024018:
No constants are given. Whether binding was seen depends on the method and setting. Some binding calls cover weakened binding; strength is not graded here.

Protein sequences, listed by entry. Tags and fused reporters are not part of them. Lines headed by an entry give the natural chain unless they say otherwise; changes in a name come on top. Residues count along the entry.
UniProt P21730, whole entry, looked up, stated change not applied: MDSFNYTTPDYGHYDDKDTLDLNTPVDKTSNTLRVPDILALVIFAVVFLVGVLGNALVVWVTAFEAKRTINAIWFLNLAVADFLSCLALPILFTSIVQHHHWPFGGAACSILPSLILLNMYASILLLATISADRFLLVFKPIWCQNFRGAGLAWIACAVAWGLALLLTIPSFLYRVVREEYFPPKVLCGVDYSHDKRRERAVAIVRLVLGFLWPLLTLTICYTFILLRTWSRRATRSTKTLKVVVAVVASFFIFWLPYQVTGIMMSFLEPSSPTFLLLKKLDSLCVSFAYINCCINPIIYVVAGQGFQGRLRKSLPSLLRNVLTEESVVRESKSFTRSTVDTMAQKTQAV
UniProt P01031, 678-751: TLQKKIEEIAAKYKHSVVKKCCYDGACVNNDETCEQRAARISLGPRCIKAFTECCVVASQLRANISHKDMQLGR

Experiments:
[1] = target: C5aR D282A mutant (human) (UniProt P21730); test: single-molecule force spectroscopy
[2] = target: C5aRΔTyr mutant (Y11F and Y14F) (human) (UniProt P21730); test: single-molecule force spectroscopy

## complement C5a anaphylatoxin (from UniProt P01031 678-751) (ligand)
[1]
  binding: binds weakly
[2]
  binding: binds weakly
